Key:
[1] = general procedure: peptide synthesis; carrier based on hyaluronan in the form of fibres, thin films, or nonwoven fabrics; conditions: whole synthesis
[2] = peptide synthesis; conditions: whole synthesis

Row | Substance | purity (crude or final not stated) [1] [%] | also measured
1 | Ac-Ahx-Ahx-Arg-Gly-Asp-Nle-O-HYA | 86 | –
2 | Ac-Arg-Gly-Asp-Ahx-Ahx-Nle-O-HYA | 95 | –
3 | Ac-Arg-Gly-Asp-Gly-Gly-Gly-Nle-O-HYA | 90 | –
4 | H-(Ala)7-Lys(Boc)-Nle-O-HYA | 86 | –
5 | H-(Val-Pro-Gly-Leu-Gly)2-O-HYA | 85 | –
6 | H-Ahx-Ahx-Arg-Gly-Asp-Nle-O-HYA | – | purity (crude or final not stated) [2]: 89%
7 | H-Arg-Gly-Asp-Gly-Gly-Gly-Nle-O-HYA (RGDGGG; H-, Nle-O-hyaluronan conjugate; printed: Arg-Gly-Asp-Gly-Gly-Gly-) | – | purity (crude or final not stated) ([2]; T7 r6): 82%; purity (crude or final not stated) ([2]; T8 r5): 85%
8 | H-Gly-Gly-Gly-Arg-Gly-Asp-Nle-O-HYA (GGGRGD; H-, Nle-O-hyaluronan conjugate; printed: Gly-Gly-Gly-Arg-Gly-Asp-) | – | purity (crude or final not stated) ([2]; T7 r7): 85%; purity (crude or final not stated) ([2]; T8 r6): 76%

Source: patent US20190328891A1 (CONTIPRO A.S., priority 2016, published 2019)
